Results as given in PubChem BioAssay AID493014 (National Center for Advancing Translational Sciences (NCATS), 2011).
Several values for one entry are separate records, joined by “and”; a condition that tells them apart may be missing. Equal entries are not always repeated. Out of some 340,000 compounds screened, about 170 (0.05%) were called active. The inconclusive results got no clear call from the source; some entries with a clear call stand among them for comparison. Calls follow the shape of the dose curve; as a rule, active = well fitted inhibition curve with a large enough effect in the signal ratio, with a control signal flat (not every such curve was filed as active); inconclusive = small, poorly fitted or top-dose-only effect, or effect the other way, or a change in a side signal; inactive = flat fitted curve, though single readings scatter; the % refers to the signal ratio. A potency beside an inconclusive call is a rough fit, not a confirmed value.

experiment: qHTS Assay to Find Inhibitors of Chronic Active B-Cell Receptor Signaling; details: ABC-DLBCL IkBa-CBG/CBR reporter, luminescence ratio (green luciferase fused to IkBa over red control in TMD8 lymphoma cells), 4 h; activity change, negative = inhibition: at 46.1 µM (top of the series) unless noted;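 as to activity change, negative = inhibition: plate controls were basal doxycycline-induced cells for no effect and cells given 10 µM MG132 for full effect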
How it was run: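 Doxycycline induced both beetle luciferases in TMD8 lymphoma cells; IKK-driven degradation limits the IkappaBalpha-fused green signal, while red luminescence normalises for cell number and nonspecific effects. Compounds tested up to 46 uM, 4 hrs.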
Potency is read from the fitted curve at half-maximal effect.

SMILES	activity change, negative = inhibition	Potency
Cn1c(C(=O)N2CCC(C(N)=O)CC2)cc2c(=O)n(C)c3ccccc3c21	inconclusive: 0.8%	
COCCN(C(=O)c1ccc(C)o1)c1c(N)n(CC(C)C)c(=O)[nH]c1=O	inconclusive: 4.98%	
Cc1nc2scc(C)n2c(=O)c1S(=O)(=O)Nc1ccc(OC(F)(F)F)cc1		inconclusive: 22.4 µM [falling, partial curve]
COc1ccccc1C(=O)Oc1ccc(C(C)(C)C)cc1	inconclusive: 2.01%	
O=C(CN1C(=O)COc2ccccc21)N1CCN(C2CCCCC2)CC1		inconclusive: 35.5 µM [falling, single point]
c1ccc(-c2n[nH]c(-c3ccccn3)n2)nc1	inconclusive: 7.01%	inconclusive: 20 µM [falling, partial curve, poor fit]
CC(=O)c1cc(NC(=O)c2cccc(C(F)(F)F)c2)c(=O)oc1C	inconclusive: -16.3%	
Cc1ccc(C(=O)Nc2nc3nc(-c4ccccc4)cc(=O)n3[nH]2)cc1	inconclusive: 0.0124%	
O=C1c2ccccc2C(=O)N1CCCCSc1nnc(-c2ccc(OC(F)F)cc2)o1		inconclusive: 2.91 µM [falling, full curve]
CN(Cc1ccccc1)C(=O)COC(=O)c1cc2ccccc2oc1=O	inconclusive: 5.23%	
CCN(CC)C(=O)OCc1c(-c2cccc(OC)c2)ncc2ccccc12		inconclusive: 10.3 µM [falling, partial curve]
CC(NC(=O)Nc1ccc([N+](=O)[O-])cc1)C(c1cccs1)N1CCCC1 (centres undefined)	inconclusive: -2.48%	
CCCN1CCC2(CC1)C(C#N)=C(N)Oc1c2sc2nc(C)cc(C)c12	inconclusive: 8.87%	
CC1CCCC(C)N1C(=O)CN1c2cccc3cccc(c23)S1(=O)=O (centres undefined)	inactive: 0.854%	
O=C(N/N=C/c1ccco1)c1cccc(NC(=O)c2ccccc2Cl)c1		inconclusive: 35.5 µM [falling, single point]
O=C(O)/C=C/c1cccc2c1OCCO2	inconclusive: -2.91%	
COc1ccc(CN2C(=O)C(CC(C)C)Nc3ncnc(N4CCN(c5ccccc5)CC4)c32)cc1 (centres undefined)	inactive: -2.38%	
Cc1nc(SCC(=O)c2ccccc2)n[nH]1	inconclusive: -16.3%	
Cc1cccc(-c2noc(CCCC(=O)NC3CCCC3)n2)c1		inconclusive: 2.82 µM [rising, full curve]
CCOC(=O)c1oc2ccc(Br)cc2c1NC(=O)CN1CCN(C)CC1		inconclusive: 5.8 µM [falling, partial curve]
O=C(O)C(Nc1nc(C(F)(F)F)nc2ccccc12)c1ccccc1 (centres undefined)	inconclusive: 0.507%	

SMILES	activity change, negative = inhibition	Potency
COc1ccc(-c2c(C#N)c(C)nc3c2C(=O)c2ccccc2-3)cc1	inactive: -0.455%	
Cc1[nH]c(=O)[nH]c(=O)c1S(=O)(=O)Nc1cccc([N+](=O)[O-])c1C	inconclusive: 7.64%	
CCc1cc2c(CN3CCN(C)CC3)cc(=O)oc2cc1O	inactive: 12.5%	
N/C(=N\N=C/c1ccc(Br)cc1)N/N=C\c1ccc(Br)cc1	inactive: -5.52%	
Cn1nc(CC(=O)Nc2ncc(Br)s2)c2ccccc2c1=O	inconclusive: 17.4%	
Cc1nc2ccccc2c2oc(C(=O)NCC3COc4ccccc4O3)cc12 (centres undefined)	inconclusive: 16.2%	
CN(c1ccccc1)S(=O)(=O)c1ccc(C(=O)NCc2ccccc2F)cc1	inconclusive: 7.42%	
Cc1nnc(SCC(=O)N/N=C/c2cn(-c3ccccc3)nc2-c2ccccc2)n1-c1ccccc1	inactive: -2.31%	
CS(=O)(=O)c1ccccc1C(=O)Nc1cc(Cl)ccc1-n1cncn1	inactive: -5.79%	
COC(=O)c1c(NC(=O)CCC(=O)O)sc2c1CCCCC2		inconclusive: 23.1 µM [falling, single point]
CCCN=Cc1c(CCC)[nH]n(-c2nc3ccccc3s2)c1=O		inconclusive: 15.8 µM [falling, single point]
COc1cc(C(=O)Nc2nc(-c3ccc(F)cc3)cs2)ccc1OCC(=O)N1CCOCC1	inconclusive: 2.43%	
Nn1c(SCc2ccc(C(=O)O)cc2)nnc1-c1ccc(Cl)cc1Cl	inconclusive: 1.17%	
COC(=O)c1cc(NC(=O)N2c3ccccc3Sc3ccccc32)cc(C(=O)OC)c1	inconclusive: -4.25%	
N#Cc1cc(Oc2cccnc2)c(Oc2cccnc2)cc1C#N	inactive: -15.8%	
O=C1c2ccccc2NC(c2c(Cl)cccc2Cl)N1Cc1ccccc1 (centres undefined)	inconclusive: 9.68%	
COc1ccc(C(=O)C(CN2CCOCC2)c2ccccc2)cc1F (centres undefined)	inconclusive: 13.8%	
CN(C(=O)c1cccc(C#CC(C)(C)O)c1)C1CCCN(Cc2ccccc2F)C1 (centres undefined)	inactive: 0.249%	
O=C(COC(=O)c1ccccc1C(=O)c1ccccc1)Nc1cccc([N+](=O)[O-])c1	inconclusive: -14.1%	
CC(NC(=O)Nc1cccc(Cl)c1)C(c1cccs1)N1CCCC1 (centres undefined)	inconclusive: 2.44%	
Cc1cccc(OCC(=O)Nc2sc3c(c2C#N)CCC3)c1	inconclusive: 17%	

SMILES	activity change, negative = inhibition	Potency
CC1(c2ccc(Cl)cc2)NC(=O)N(CC(=O)N2CCc3ccccc3C2)C1=O (centres undefined)	inconclusive: -6.43%	
CNC(=S)NCCc1ccc(OC)c(OC)c1	inconclusive: 0.214%	
CC(C)CCNC(=O)C(=O)NCC1OCCCN1S(=O)(=O)c1cccs1 (centres undefined)	inconclusive: 14.4%	
CC(=O)Nc1cccc(NC(=O)c2cccc3cccnc23)c1	inconclusive: -1.92%	
COc1ccccc1/C=C/C=N/NC(=O)c1cc(-c2ccc(C)o2)[nH]n1		inconclusive: 20 µM [falling, partial curve]
O=C(CSc1n[nH]c(-c2cccnc2)n1)Nc1ccc(Cl)cc1	inconclusive: -8.44%	
COc1cc(-c2nc(C(=O)NC3CCCCC3)cc3c2[nH]c2ccccc23)cc(OC)c1OC	inconclusive: -17.3%	
COc1ccc(NC(=O)CCN2CCCC(C)C2)cc1 (centres undefined)	inconclusive: 2.13%	
CC(=O)c1c(N2CCOCC2)nc(=S)n(-c2ccccc2)c1C	inconclusive: 5.35%	
O=C(COc1ccc(C(=O)c2ccc(F)cc2)cc1)NCc1ccc(F)cc1		inconclusive: 8.2 µM [falling, partial curve]
O=C(Nc1nc2c(Cl)c(Cl)ccc2s1)C1CC1		inconclusive: 1.26 µM [rising, full curve, poor fit]
CC(C)Cc1nccs1	inactive: 0.807%	
O=C(CCNS(=O)(=O)c1ccc(Br)cc1)N1CCN(c2ccccc2O)CC1	inconclusive: 9.95%	
COc1ccccc1/C=C/C=N/n1c(-c2ccccc2)n[nH]c1=S		inconclusive: 2 µM [falling, full curve, poor fit]
Cc1ccccc1CNC(=O)C1CCN(c2nnc(N3CCCC3=O)s2)CC1	inactive: 4.65%	
CCNc1nc(NCC)n2c(SCC(=O)Nc3ccc(OC(F)F)cc3)nnc2n1	inactive: -7.44%	
Cc1cccc(-n2c(O)c(C=NC3CCS(=O)(=O)C3)c3ccccc3c2=O)c1C (centres undefined)	inactive: 13.4%	
O=C(Oc1ccc([N+](=O)[O-])cc1)C1CC(=O)N(c2ccc3c(c2)OCCO3)C1 (centres undefined)	inactive: 0.572%	
Cc1cccc(C(=O)NC(=S)Nc2ccc(N3CCOCC3)cc2)c1	inactive: -0.31%	
CN(C)C(=O)N1CCC(C(=O)NCc2cccs2)CC1	inactive: -0.209%	
COCC(=O)Nc1ccc(C(C)C)cc1	inconclusive: 11.6%	

Another view of 4 compounds above:
CC1(c2ccc(Cl)cc2)NC(=O)N(CC(=O)N2CCc3ccccc3C2)C1=O (centres undefined)
  activity change, negative = inhibition: inconclusive: -6.43%
CNC(=S)NCCc1ccc(OC)c(OC)c1
  activity change, negative = inhibition: inconclusive: 0.214%
CC(C)CCNC(=O)C(=O)NCC1OCCCN1S(=O)(=O)c1cccs1 (centres undefined)
  activity change, negative = inhibition: inconclusive: 14.4%
CC(=O)Nc1cccc(NC(=O)c2cccc3cccnc23)c1
  activity change, negative = inhibition: inconclusive: -1.92%

More entries:

SMILES	activity change, negative = inhibition	Potency
O=C(NNC(=O)c1ccc(Cl)cc1Cl)Nc1ccccc1	inactive: 2.23%	
CC(=O)NCCNC(=O)[C@H](Cc1ccccc1)NC(=O)c1cccs1		inconclusive: 20.6 µM [falling, partial curve, poor fit]
O=C(Nc1cccc(NC(=O)c2ccccc2[N+](=O)[O-])n1)c1ccccc1[N+](=O)[O-]	inconclusive: -11.8%	
CCOc1cc(Br)c(C=O)cc1OCC		inconclusive: 6.31 µM [falling, full curve]
Cc1nnc(Oc2ccccc2F)c2ccccc12	inconclusive: -0.734%	
Cc1cc(NC(=S)Nc2ccccc2)ccc1Br	inconclusive: 16.9%	
O=C(NNC(=S)Nc1ccccc1Cl)c1ccccc1Cl	inactive: -8.19%	
COc1ccc(Cl)cc1Nc1nc(-c2sc(NC(=O)c3ccco3)nc2C)cs1	inconclusive: -6.49%	
COc1cc(C)c(S(=O)(=O)N2CCOCC2)cc1C	inactive: -2.55%	
Oc1cc(-c2ccc(N3CCCCC3)nc2)cc2cccnc12	inconclusive: -3.17% and inconclusive: 23.8%	
Cc1cccc(C)c1NC(=S)N/N=C/c1ccc(C(=O)O)cc1	inactive: -0.167%	
CC(=O)[C@@H]1[C@@H](C(=O)c2ccc(F)cc2)[C@]2(C(=O)Nc3ccccc32)[C@H]2C=Cc3cc(F)ccc3N12		inconclusive: 22.4 µM [falling, single point]
COc1ccc(C(=O)N=c2sc3c(C)ccc(OC)c3n2C)cc1	inactive: 12.1%	
C=CCn1c(=O)c(C(=O)NCc2ccc(Cl)cc2)c(O)c2ccccc21	inactive: 4.13%	
COCCCNC(=O)/C(C#N)=C/c1ccc(F)cc1		inconclusive: 25.1 µM [falling, single point]
O=C1c2cccc3cccc(c23)C(=O)N1c1ccncc1		inconclusive: 25.9 µM [falling, partial curve, poor fit]
COc1ccc(C(=O)COC(=O)c2ccc(-n3cnnn3)cc2)c(OC)c1		inconclusive: 23.1 µM [falling, partial curve]
COc1ccc(CNC(=O)CNC(=O)N2CC(=O)Nc3ccccc32)cc1	inconclusive: 0.792%	
COc1ccc(Cl)cc1C(=O)NNC(=O)c1cccnc1		inconclusive: 18.4 µM [falling, single point]
O=C(Nc1ccc2c(c1)OCO2)c1c(F)c(F)c(F)c(F)c1F		inconclusive: 32.6 µM [rising, partial curve, poor fit]
